According to US10098967B2, “Self-assembly of therapeutic agent-peptide nanostructures” (Ohio State Innovation Foundation, priority 2012, dated 2018):

Assay: TEM imaging of nanotubes diluted in human serum
Type: in vitro ADME
Conditions: 10 mM PBS diluted to 1 mM with human serum

SMILES	presence of nanotubes after 24 h
CC[C@@]1(OC(=O)CCC(=O)NCCCC[C@H](NC(=O)[C@H](CCCCN)NC(C)=O)C(N)=O)C(=O)OCc2c1cc1n(c2=O)Cc2cc3ccccc3nc2-1 [C, Ac-KK(CPT)-NH2]	nanotubes were present
CC[C@@]1(OC(=O)CCC(=O)NCCCC[C@H](NC(=O)[C@@H](N)CCCCN)C(N)=O)C(=O)OCc2c1cc1n(c2=O)Cc2cc3ccccc3nc2-1 [D, NH2—KK(CPT)-NH2]	nanotubes were present
